Here are results for 167 variants from the RNAGym collection of RNA variant scans (doi:10.1126/science.aae0568).

Variants at the floor of the assay are shown more often than the library holds them.

To fix the notation:
B1: tRNA (parent)
chain: GUUCCGUUGGCGUAAUGGUAACGCGUCUCCCUCCUAAGGAGAAGACUGCGGGUUCGAGUCCCGUACGGAACG

The variants in the data set derive from B1. Nature of the data set: yeast fitness relative to wild type (ratio to wild type); higher = fitter; tRNA-Arg(CCU), competitive growth, 37 C, YPD. A digest of the protocol: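 Start and end populations of a pooled competition were compared by 100-nucleotide paired-end sequencing of gene amplicons. The Saccharomyces cerevisiae strains carried tRNA-Arg(CCU) gene variants at the native genomic locus, synthesised with a 3% per-site mutation rate at 69 sites, and competed in YPD at 37°C for 24 hours in six parallel replicates. Darwinian fitness relative to wild type was based on the change in genotype frequencies. Genotypes required ≥ 100 starting reads, and estimates < 0.5 were set to 0.5.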
With C4U C46U C62G, the yeast fitness was not above 0.5.

For the variant C5G U8C C11A U26C U35C G50C G52A, the yeast fitness was found to be 0.634.

On to U35A A43G C66U, for which the yeast fitness is not above 0.5.

On to C5G A20G A40G G44A, for which the yeast fitness was not above 0.5.

In the case of U7C A14G A43U C49G, the yeast fitness was not above 0.5.

U7G C34A G44C C49U G51A: the yeast fitness is not above 0.5.

In the case of U8C C29A C34G A36G A37G A40C U47A U64C, the yeast fitness is not above 0.5.

In the case of C27A A36G A42G, the yeast fitness was not above 0.5.

Regarding C4G A14U C31U A40G A42G, the yeast fitness is not above 0.5.

On to A15C A36G C46A C61A, for which the yeast fitness was not above 0.5.

As to G9A A15U C31G U53A C55U A57C C60G G67C, the yeast fitness was not above 0.5.

For the variant C24A U54A G58U A69C, the yeast fitness was not above 0.5.

Regarding G10C C11A C49G C55A, the yeast fitness is not above 0.5.

As for C4U U13A C46U U53A, the yeast fitness is 0.633.

Take C24G U54C G67C: the yeast fitness was not above 0.5.

For the variant C11A C27G U35A A43U U54C A65G, the yeast fitness is 0.659.

Turning to G6C G18C A20G C22U C34G A36U A57C C66U, the yeast fitness is not above 0.5.

Consider C4U A21G C46A G68C, for which the yeast fitness came to 0.544.

With G17C C62U A65C, the yeast fitness worked out at 0.593.

For the variant C24G C55U G67C, the yeast fitness was not above 0.5.

For the variant C5A C29A A70U, the yeast fitness is not above 0.5.

For the variant C55A A57C C60G, the yeast fitness was not above 0.5.

In the case of C4U A14G A40U, the yeast fitness turned out to be 0.593.

As to A15U U28A C46A, the yeast fitness was 0.507.

Consider A21U C33U G38A A45U C62U, for which the yeast fitness is not above 0.5.

For U2G G6A G23C G38A G58C A70G, the yeast fitness is not above 0.5.

With G10A C29G G67U, the yeast fitness is not above 0.5.

With A20G C30U C49A C62U, the yeast fitness was not above 0.5.

C5G U7G A14C U19A C33G: the yeast fitness was not above 0.5.

C4U U7A A20G G23A U26G: the yeast fitness is not above 0.5.

Turning to C4U A20C C30A C33U C34U C49A, the yeast fitness is not above 0.5.

Take U7A G12C C34U C66G: the yeast fitness is not above 0.5.

Regarding C27U A40C G58A G67A A70C, the yeast fitness is not above 0.5.

Regarding G18A C34U C60U, the yeast fitness is not above 0.5.

Take A20G G23C G50A: the yeast fitness is not above 0.5.

With G39C G52A G68A, the yeast fitness was not above 0.5.

Turning to C5U G25A G52C, the yeast fitness was not above 0.5.

Consider C24U A65C, for which the yeast fitness was 0.739.

For C24G C30U G44C, the yeast fitness was not above 0.5.

For the variant C11A U19G A36G U54C, the yeast fitness is not above 0.5.

As for G12U A36G C62G, the yeast fitness is not above 0.5.

Take C5G G9C C66G: the yeast fitness was not above 0.5.

Take G12A A20C A65U: the yeast fitness amounted to 0.57.

On to G25A G44C G52A C62G A69G, for which the yeast fitness was not above 0.5.

Regarding C29U C31A C55U A57C A70G, the yeast fitness is not above 0.5.

As to G23C G38A G48A C49G, the yeast fitness is not above 0.5.

In the case of C31A A45C C62U G63A U64G, the yeast fitness was not above 0.5.

Consider G17A C24G C27G G52A G67A, for which the yeast fitness was not above 0.5.

C31G A57U G67U: the yeast fitness is not above 0.5.

Regarding G9C G18A G23C G56C, the yeast fitness was not above 0.5.

On to G25C U28G A42C C61U, for which the yeast fitness is not above 0.5.

G12A C66A G67A: the yeast fitness was not above 0.5.

On to C34A A40U U53A A69C, for which the yeast fitness is not above 0.5.

For the variant U19G U64G C66A, the yeast fitness was not above 0.5.

Take U7C G67A: the yeast fitness turned out to be 0.863.

Take G9A C11A C34G A36G A70C: the yeast fitness was not above 0.5.

In the case of C11U A37U C55U C66U, the yeast fitness is not above 0.5.

Take C4G G18C C24G C29G A36C C46A C55U: the yeast fitness was not above 0.5.

For the variant A42G G68C A69G, the yeast fitness was found to be 0.563.

With U2G G6A G67C, the yeast fitness was not above 0.5.

For G10C A42U A43U C62A A65U A69G, the yeast fitness was not above 0.5.

For the variant C27U G41A G58C A69C, the yeast fitness is 0.645.

For A21G C22U A37U A45G C46G C55G, the yeast fitness is not above 0.5.

Consider C30A C34G G52A C60A U64A, for which the yeast fitness was not above 0.5.

Take C5U A14C G41C A43C: the yeast fitness was not above 0.5.

Take G17C G23C C33G G50A: the yeast fitness is not above 0.5.

G25A C29G C30U C33G G67U: the yeast fitness was not above 0.5.

For the variant A37G A40G A70U, the yeast fitness was not above 0.5.

In the case of C4G U16C G56A G67C, the yeast fitness is not above 0.5.

With G12C C27A G67U, the yeast fitness is not above 0.5.

As for C30A U32A U47G A57G C61U, the yeast fitness is not above 0.5.

As to G38C A42U U47G C62U, the yeast fitness was not above 0.5.

Consider U8C C34G A36G, for which the yeast fitness is not above 0.5.

On to A40U A42C G52A U64C C66U, for which the yeast fitness is not above 0.5.

With C24A C31U A42C U53G, the yeast fitness is not above 0.5.

C5U C27G C34G: the yeast fitness was not above 0.5.

Regarding C11U G23C C29U C34G A57G U59G, the yeast fitness is not above 0.5.

For A20U C29A A36C A40C A45C, the yeast fitness was not above 0.5.

As for A20U C22A C61A C62G G68A, the yeast fitness is not above 0.5.

For the variant U2A G10A U13C A37U C66G, the yeast fitness was not above 0.5.

As for C4A C55A C60A, the yeast fitness is not above 0.5.

A21C U35C C66G: the yeast fitness is not above 0.5.

With C34G G48C U59A, the yeast fitness was not above 0.5.

Consider U8C U13C G25A C27A G39C G68C, for which the yeast fitness is not above 0.5.

Regarding C4U G9A C22G A65G, the yeast fitness is not above 0.5.

Regarding C55G C60A A69C, the yeast fitness is not above 0.5.

With C5U A14C C34A, the yeast fitness is not above 0.5.

As to C4G A14U C61G, the yeast fitness is not above 0.5.

U7G A14C G48A U53C C60A: the yeast fitness is not above 0.5.

As for C22U C30A C31U G67U, the yeast fitness was not above 0.5.

Consider C4U U7C G10A A14U C27G A36G G63A, for which the yeast fitness is not above 0.5.

With C4G G23C C29U C31G, the yeast fitness is not above 0.5.

G6A C27U C29G C61U: the yeast fitness was not above 0.5.

A14U C29A C66U: the yeast fitness is not above 0.5.

Consider U2A U28A A37C, for which the yeast fitness was not above 0.5.

For the variant C11A C24U U59G A69C, the yeast fitness is not above 0.5.

On to C11U C31U G68C, for which the yeast fitness is not above 0.5.

For the variant U28A C33U A57U, the yeast fitness was not above 0.5.

Consider C5U G17C U26G G63A, for which the yeast fitness was not above 0.5.

As for C5G C33G G41A G63A A69C, the yeast fitness was not above 0.5.

With C24A C33U C34A A43U C46G C55U, the yeast fitness was not above 0.5.

As to A36G A45C C61U, the yeast fitness worked out at 0.76.

With C5G C29G G52A, the yeast fitness is not above 0.5.

Regarding U3A C11G G12A C22U, the yeast fitness is not above 0.5.

C27G C29A C33A: the yeast fitness was not above 0.5.

As for C11U G12A C55A C62G A69C, the yeast fitness is not above 0.5.

On to C5A A21C U54C, for which the yeast fitness was not above 0.5.

Regarding C24G A37G A43U C62G, the yeast fitness amounted to 0.77.

Regarding C24G C30G A36U C55U A69C, the yeast fitness was not above 0.5.

For C4G G41U C61A C66U, the yeast fitness is not above 0.5.

On to U16G C30G A57U U59G, for which the yeast fitness is not above 0.5.

Take C4G C5A A15G C33G C55G: the yeast fitness was not above 0.5.

As to U3A U7A G12C C46U, the yeast fitness was not above 0.5.

C11U C34U G48A A69C: the yeast fitness is not above 0.5.

For the variant C5G C11G A15C A45U C49U G56C G63C, the yeast fitness is not above 0.5.

As to G12A U19C C34G C66U A69U, the yeast fitness is 0.59.

As for C5G G12A C55U, the yeast fitness was not above 0.5.

Regarding G17A C22G C31G C33G A69C, the yeast fitness was not above 0.5.

Regarding C29G A36U A42G C55A, the yeast fitness was not above 0.5.

As to G6C C24G C34U U53C C55G, the yeast fitness is not above 0.5.

For G44A U64G, the yeast fitness is 0.694.

Regarding A15G G18C A20G, the yeast fitness was not above 0.5.

C27G C33U A43U: the yeast fitness was not above 0.5.

Take C5G G10A C11G U16G C33G C62U: the yeast fitness is not above 0.5.

Take U28A G51A A70U: the yeast fitness is not above 0.5.

Regarding C11A A14G A36U C66A, the yeast fitness is not above 0.5.

U2G U7C G18C A42U C49G: the yeast fitness is not above 0.5.

On to U7C A21C A40C U53G C62U, for which the yeast fitness was not above 0.5.

Consider C5U C34A G56A, for which the yeast fitness is not above 0.5.

As to U3G G39A U53A, the yeast fitness is not above 0.5.

Regarding C4A G68C, the yeast fitness was determined as 0.808.

As to U8A G38C C61U, the yeast fitness is not above 0.5.

On to C4U C11G A37C, for which the yeast fitness was not above 0.5.

Regarding C29U A37G A65G, the yeast fitness was not above 0.5.

As for U2C G9U C61G, the yeast fitness is not above 0.5.

On to C22G A40C C49G A57U C66U, for which the yeast fitness is not above 0.5.

Turning to G25A C49A G68C, the yeast fitness is not above 0.5.

For the variant U3A C27A A69U, the yeast fitness came out at 0.627.

For the variant U2G A14C C62G C66G, the yeast fitness is not above 0.5.

As for U13C A36U A45C C49G, the yeast fitness was not above 0.5.

Take C22G A36C U54C C55U C60A C62G A69U: the yeast fitness is not above 0.5.

G10A G23C C29U A36U: the yeast fitness was not above 0.5.

Turning to G9C A20C, the yeast fitness was 0.626.

With C24G C30G C34G A70G, the yeast fitness is not above 0.5.

For the variant G9U G12C G63A, the yeast fitness was not above 0.5.

As to U28A C30U A69C, the yeast fitness stood at 0.57.

U3A C4U U7A A36C A45C U54A A57C: the yeast fitness is not above 0.5.

As to C4A G6A A20G C46U A57G, the yeast fitness was not above 0.5.

As to A15G C22U A36U, the yeast fitness was not above 0.5.

With C24A G39C A70U, the yeast fitness was not above 0.5.

For U8A G18A C30A U32A U35G A57G C61G C62A, the yeast fitness is not above 0.5.

As to A20U U53C A57C A65U, the yeast fitness is not above 0.5.

For the variant U13C G18C G50C A57U C62U, the yeast fitness worked out at 0.578.

On to G9A C33U C34G, for which the yeast fitness is not above 0.5.

In the case of U16C U35G G48C C66U, the yeast fitness was not above 0.5.

With G6C C27U U28C A45G U64A, the yeast fitness was not above 0.5.

Take G12C G17A C61U G68A: the yeast fitness is not above 0.5.

Take G9A G10A U54A: the yeast fitness was not above 0.5.

As for C5A U8C G38A, the yeast fitness was not above 0.5.

Consider C11A A14C C34A G67A A70G, for which the yeast fitness was not above 0.5.

In the case of G10A C27A A37G, the yeast fitness was not above 0.5.

As for G9C C27U A36U G51A, the yeast fitness was not above 0.5.

In the case of C22U U28C U54A A69U, the yeast fitness is not above 0.5.

As to C27U G38A A40G A43U C46G C49G C62U, the yeast fitness is not above 0.5.

Take U3C A37C A57U: the yeast fitness was not above 0.5.

In the case of U2G G17A G23A G38C A40G A57G, the yeast fitness is not above 0.5.

A20G C27A A36U: the yeast fitness is not above 0.5.
